Measurements reported in PubChem BioAssay AID1053208 (Peter MacCallum Cancer Centre, 2014).
Aim: 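Genes whose silencing cuts survival of bone tumour cells only with doxorubicin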 (primary screen). Cell system: mouse osteosarcoma cells, early-passage culture from an engineered mouse model of fibroblastic bone tumour. Reagents: siRNA pool against mouse genes, 40 nM. Time to read-out: about 120 h (48 h before drug, then 72 h with drug). Conditions: doxorubicin 100 nM for 72 h, roughly 30-40% inhibitory dose. Read-out: 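Viability read as ATP luminescence after 72 h of 100 nM doxorubicin or none, duplicate wells averaged, scaled to non-targeting siRNA, then expressed as robust z-scores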. Scale: viability z-score with doxorubicin: higher = more viable cells under doxorubicin; viability z-score without drug: higher = more viable cells with knock-down alone. Rule for the call: 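Called active if knock-down leaves viability unchanged without drug (z within -2 to 2) but lowers it with doxorubicin (z at or under -2)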.
Here is an unselected part of about 17,000 reagents. Of all reagents, 788 (4.7%) are marked active. 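Calls rest on z-score classes alone; an extra cut-off of viability at most 70% of control was not applied to them.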 Further read-outs or replicates are left out here.

Which result is listed for Slc34a1 (GeneID 20505)?
combined z-score class: no change with or without drug; viability z-score with doxorubicin: 0.22; viability z-score without drug: -1.52; call: inactive

For Gpn3 (GeneID 68080), what does the deposit list?
combined z-score class: no change with or without drug; viability z-score with doxorubicin: 1.24; viability z-score without drug: -1.18; call: inactive

Which result is listed for Arhgef10l (GeneID 72754)?
combined z-score class: high cell count with doxorubicin only; viability z-score with doxorubicin: 2.59; viability z-score without drug: 1.18; call: inactive

Which result is listed for Gpr108 (GeneID 78308)?
combined z-score class: no change with or without drug; viability z-score with doxorubicin: -0.22; viability z-score without drug: 0.17; call: inactive

With Amer1 (GeneID 72345), what was measured?
combined z-score class: no change with or without drug; viability z-score with doxorubicin: 0.22; viability z-score without drug: 0.34; call: inactive

Which result is listed for Ltb4r1 (GeneID 16995)?
combined z-score class: no change with or without drug; viability z-score with doxorubicin: -1.91; viability z-score without drug: 1.35; call: inactive

With Or8j3 (GeneID 259019), what does the deposit list?
combined z-score class: no change with or without drug; viability z-score with doxorubicin: 0.56; viability z-score without drug: -0.17; call: inactive

With Gp2 (GeneID 67133), how do the results read?
combined z-score class: no change with or without drug; viability z-score with doxorubicin: -0.9; viability z-score without drug: 0; call: inactive

Which result is listed for Elac1 (GeneID 114615)?
combined z-score class: no change with or without drug; viability z-score with doxorubicin: -0.22; viability z-score without drug: 0.17; call: inactive

For E330037G11Rik (GeneID 102220), how do the results read?
combined z-score class: no change with or without drug; viability z-score with doxorubicin: -0.45; viability z-score without drug: 0.17; call: inactive

With Anpep (GeneID 16790), what was measured?
combined z-score class: no change with or without drug; viability z-score with doxorubicin: -0.67; viability z-score without drug: -0.17; call: inactive

What did the screen give for Dach2 (GeneID 93837)?
combined z-score class: no change with or without drug; viability z-score with doxorubicin: -1.12; viability z-score without drug: -0.84; call: inactive
